Measurements reported in PubChem BioAssay AID1053208 (Peter MacCallum Cancer Centre, 2014).
Screen: 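Genes whose silencing cuts survival of bone tumour cells only with doxorubicin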 (primary screen). System: mouse osteosarcoma cells, early-passage culture from an engineered mouse model of fibroblastic bone tumour. Reagents: siRNA pool against mouse genes, 40 nM. Duration: about 120 h (48 h before drug, then 72 h with drug). Conditions: doxorubicin 100 nM for 72 h, roughly 30-40% inhibitory dose. Detection: 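Luminescent ATP signal taken as viability with or without 100 nM doxorubicin for 72 h; mean of two wells set against non-targeting siRNA and turned into robust z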. Direction: viability z-score with doxorubicin: higher = more viable cells under doxorubicin; viability z-score without drug: higher = more viable cells with knock-down alone. Active means: 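Called active if knock-down leaves viability unchanged without drug (z within -2 to 2) but lowers it with doxorubicin (z at or under -2)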.
The deposit covers about 17,000 reagents; this is an unselected part. 788 of them (4.7%) were called active. 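Calls rest on z-score classes alone; an extra cut-off of viability at most 70% of control was not applied to them.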 Reagents against one gene are numbered here. Further read-outs or replicates are left out here.

| gene knocked down | pool no. | combined z-score class | viability z-score with doxorubicin | viability z-score without drug | Call |
| --- | --- | --- | --- | --- | --- |
| Arfip2 (ARF interacting protein 2) | 1 | low cell count with doxorubicin only | -2.25 | -1.18 | active |
| Tpbpb (trophoblast specific protein beta) | 1 | no change with or without drug | 0.34 | -0.17 | inactive |
| Minar1 (membrane integral NOTCH2 associated receptor 1) | 1 | no change with or without drug | -0.79 | -0.51 | inactive |
| Gabrg3 (gamma-aminobutyric acid type A receptor, subunit gamma 3) | 1 | no change with or without drug | 0.67 | 0.51 | inactive |
| Gabrg3 (gamma-aminobutyric acid type A receptor, subunit gamma 3) | 2 | no change with or without drug | 0.34 | -0.17 | inactive |
| Exoc3l4 (exocyst complex component 3-like 4) | 1 | no change with or without drug | 0 | 1.01 | inactive |
| Yes1 (YES proto-oncogene 1, Src family tyrosine kinase) | 1 | no change with or without drug | 0.45 | 0.84 | inactive |
| Sh2b2 (SH2B adaptor protein 2) | 1 | no change with or without drug | -0.56 | -1.01 | inactive |
| Enpp2 (ectonucleotide pyrophosphatase/phosphodiesterase 2) | 1 | no change with or without drug | -0.56 | 0.84 | inactive |
| Cobll1 (Cobl-like 1) | 1 | no change with or without drug | 0.56 | 0.51 | inactive |
| Cyb5rl (cytochrome b5 reductase-like) | 1 | no change with or without drug | 0.67 | 1.18 | inactive |
| 2210016L21Rik (RIKEN cDNA 2210016L21 gene) | 1 | low cell count with doxorubicin only | -4.27 | -1.18 | active |
| Wbp1 (WW domain binding protein 1) | 1 | high cell count with doxorubicin only | 3.93 | 1.69 | inactive |
| Hdac9 (histone deacetylase 9) | 1 | no change with or without drug | 1.46 | -0.51 | inactive |
| Mmachc (methylmalonic aciduria cblC type, with homocystinuria) | 1 | no change with or without drug | -1.57 | 1.01 | inactive |
| Tmem79 (transmembrane protein 79) | 1 | no change with or without drug | 0.45 | 0.84 | inactive |

Copied from the list.
Value of Sh2b2 (SH2B adaptor protein 2) in “combined z-score class”: no change with or without drug
Entry for Gabrg3 (gamma-aminobutyric acid type A receptor, subunit gamma 3) #2 in “Call”: inactive
Under “combined z-score class”, Exoc3l4 (exocyst complex component 3-like 4) shows no change with or without drug
Under “viability z-score without drug”, Gabrg3 (gamma-aminobutyric acid type A receptor, subunit gamma 3) #1 shows 0.51
Entry of Cobll1 (Cobl-like 1) under “viability z-score with doxorubicin”: 0.56
Under “Call”, Enpp2 (ectonucleotide pyrophosphatase/phosphodiesterase 2) shows inactive

The results go on:
| gene knocked down | pool no. | combined z-score class | viability z-score with doxorubicin | viability z-score without drug | Call |
| --- | --- | --- | --- | --- | --- |
| Urm1 (ubiquitin related modifier 1) | 1 | no change with or without drug | 0.9 | 0 | inactive |
| Unc119 (unc-119 lipid binding chaperone) | 1 | no change with or without drug | 0.45 | 0.17 | inactive |
| Ccne1 (cyclin E1) | 1 | no change with or without drug | 0.56 | 0.51 | inactive |
| Cpsf4 (cleavage and polyadenylation specific factor 4) | 1 | low cell count without drug only | -1.46 | -2.02 | inactive |
| Cox20 (cytochrome c oxidase assembly protein 20) | 1 | no change with or without drug | -1.24 | 0.17 | inactive |
| Tgfb3 (transforming growth factor, beta 3) | 1 | no change with or without drug | -0.45 | -0.34 | inactive |
| Ostn (osteocrin) | 1 | no change with or without drug | -1.8 | -0.51 | inactive |
| Inpp5a (inositol polyphosphate-5-phosphatase A) | 1 | no change with or without drug | -0.45 | 0.17 | inactive |
| Or5ar1 (olfactory receptor family 5 subfamily AR member 1) | 1 | low cell count with and without drug | -2.92 | -2.53 | inactive |
| Stx4a (syntaxin 4A (placental)) | 1 | no change with or without drug | -0.11 | -0.51 | inactive |
| Kdelr1 | 1 | low cell count with doxorubicin only | -2.25 | -0.51 | active |
| Hap1 (huntingtin-associated protein 1) | 1 | no change with or without drug | 1.24 | -1.69 | inactive |
| Ca5a (carbonic anhydrase 5A) | 1 | no change with or without drug | -1.12 | -0.17 | inactive |
| Krcc1 (lysine-rich coiled-coil 1) | 1 | no change with or without drug | 0.56 | -0.51 | inactive |
| Gpr37 (G protein-coupled receptor 37) | 1 | no change with or without drug | -0.22 | 0.17 | inactive |
| Ccnf (cyclin F) | 1 | no change with or without drug | -0.34 | 1.18 | inactive |
| Lgalsl (galectin like) | 1 | no change with or without drug | -0.22 | 0.34 | inactive |
| Or51a42 (olfactory receptor family 51 subfamily A member 42) | 1 | no change with or without drug | 0.45 | 0.17 | inactive |
| Fbxo16 (F-box protein 16) | 1 | no change with or without drug | -1.57 | 0.51 | inactive |
| Socs5 (suppressor of cytokine signaling 5) | 1 | high cell count with doxorubicin only | 2.59 | -0.17 | inactive |
| Extl3 (exostosin-like glycosyltransferase 3) | 1 | no change with or without drug | 0.45 | 0.51 | inactive |
| Rasgrp4 (RAS guanyl releasing protein 4) | 1 | no change with or without drug | 0.45 | 1.18 | inactive |
| Efemp1 | 1 | no change with or without drug | 0.67 | 1.18 | inactive |
| Spmip10 (sperm microtubule inner protein 10) | 1 | high cell count without drug only | 1.35 | 3.54 | inactive |
| Abcc2 (ATP-binding cassette, sub-family C member 2) | 1 | no change with or without drug | 0.34 | -0.84 | inactive |
| Vmn1r216 (vomeronasal 1 receptor 216) | 1 | no change with or without drug | 0.9 | -0.51 | inactive |
| Ptpn4 (protein tyrosine phosphatase, non-receptor type 4) | 1 | no change with or without drug | 0.9 | -0.17 | inactive |
| Rtl8c (retrotransposon Gag like 8C) | 1 | no change with or without drug | 0.45 | -0.17 | inactive |
| Sh3tc2 (SH3 domain and tetratricopeptide repeats 2) | 1 | no change with or without drug | -1.12 | 0.51 | inactive |
| Nlrp9a (NLR family, pyrin domain containing 9A) | 1 | no change with or without drug | 0 | -0.84 | inactive |
| Map2k2 (mitogen-activated protein kinase kinase 2) | 1 | no change with or without drug | -0.56 | 0.84 | inactive |
| Pcdhb22 (protocadherin beta 22) | 1 | high cell count with and without drug | 2.02 | 2.53 | inactive |
| Clic4 (chloride intracellular channel 4) | 1 | no change with or without drug | 0.9 | -0.17 | inactive |
| Prl3d3 (prolactin family 3, subfamily d, member 3) | 1 | no change with or without drug | -0.9 | -0.67 | inactive |
